Assay results reported in paper PMC9654039, “FUS Microphase Separation: Regulation by Nucleic Acid Polymers and DNA Repair Proteins”.
No constants are given. Whether binding was seen depends on the method and setting. Some entries that bind do so weakly or less than the wild type.

Chains of the proteins cited; added tags and fusions are not shown.
UniProt P18887: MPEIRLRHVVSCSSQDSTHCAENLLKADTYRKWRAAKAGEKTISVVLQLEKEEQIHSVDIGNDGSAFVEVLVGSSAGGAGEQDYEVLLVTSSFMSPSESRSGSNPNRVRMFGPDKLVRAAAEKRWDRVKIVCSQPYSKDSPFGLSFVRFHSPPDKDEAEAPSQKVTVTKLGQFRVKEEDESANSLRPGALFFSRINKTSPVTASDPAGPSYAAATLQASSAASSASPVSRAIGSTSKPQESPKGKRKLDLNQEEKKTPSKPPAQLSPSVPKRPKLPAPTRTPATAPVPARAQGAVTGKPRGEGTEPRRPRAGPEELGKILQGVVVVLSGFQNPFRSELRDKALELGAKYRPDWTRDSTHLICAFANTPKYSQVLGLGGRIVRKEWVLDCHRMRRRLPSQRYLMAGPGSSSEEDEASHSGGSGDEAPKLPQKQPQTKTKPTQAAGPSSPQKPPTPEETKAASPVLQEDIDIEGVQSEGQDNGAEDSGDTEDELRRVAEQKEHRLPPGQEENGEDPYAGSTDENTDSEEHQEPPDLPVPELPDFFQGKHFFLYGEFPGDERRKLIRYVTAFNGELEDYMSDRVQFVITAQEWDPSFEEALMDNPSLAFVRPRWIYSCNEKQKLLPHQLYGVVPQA

Target: X-ray repair cross-complementing protein 1 (XRCC1) (human) (UniProt P18887)
Assay: dynamic light scattering; XRCC1 alone, 2.9 µM, in DLS buffer (25 mM HEPES-NaOH pH 7.5, 200 mM NaCl, 300 mM urea, 1 mM DTT); 25 °C; no PAR; both purified

X-ray repair cross-complementing protein 1 (XRCC1) (from UniProt P18887 1-633) (other; other documents disagree on this pair)
binding: binds
